{"source": "patent US20210130460A1", "about": "“ANTI-CD19 THERAPY IN COMBINATION WITH LENALIDOMIDE FOR THE TREATMENT OF LEUKEMIA OR LYMPHOMA” (MORPHOSYS AG, priority 2019, published 2021)", "origin": "cited, not measured here", "test_system": "relapsed or refractory DLBCL", "settings": "prior studies in similar populations; cited from earlier work", "note": "At least one compound was matched to its structure with a doubt left.", "data": [{"molecule": "C=CC(=O)N1CCC[C@@H](n2nc(-c3ccc(Oc4ccccc4)cc3)c3c(N)ncnc32)C1", "note": "[ibrutinib]", "values": [{"measurement": "Objective response rate", "result": 25, "unit": "%"}]}]}
